The results in this text go back to article PMC12829203.

The test addresses CHEK2 (human (endogenous in A549)) (UniProt O96017). Kind of test: co-IP; A549 cell lysates in lysis buffer with protease inhibitors; immunoprecipitation of endogenous proteins with rabbit anti-KPNA2, anti-CHEK2 or anti-FOXM1 antibody (anti-IgG as control), eluates analysed by Western blot.

These are yes or no findings as the source states them, for the method shown. Binding seen in cells or lysates may run through a third protein. Some results given as binding are weak or reduced against the parent protein; the word gives no strength.

B1: FOXM1 (protein, UniProt Q08050 1-763)
chain: MKTSPRRPLILKRRRLPLPVQNAPSETSEEEPKRSPAQQESNQAEASKEVAESNSCKFPAGIKIINHPTMPNTQVVAIPNNANIHSIITALTAKGKESGSSGPNKFILISCGGAPTQPPGLRPQTQTSYDAKRTEVTLETLGPKPAARDVNLPRPPGALCEQKRETCADGEAAGCTINNSLSNIQWLRKMSSDGLGSRSIKQEMEEKENCHLEQRQVKVEEPSRPSASWQNSVSERPPYSYMAMIQFAINSTERKRMTLKDIYTWIEDHFPYFKHIAKPGWKNSIRHNLSLHDMFVRETSANGKVSFWTIHPSANRYLTLDQVFKPLDPGSPQLPEHLESQQKRPNPELRRNMTIKTELPLGARRKMKPLLPRVSSYLVPIQFPVNQSLVLQPSVKVPLPLAASLMSSELARHSKRVRIAPKVLLAEEGIAPLSSAGPGKEEKLLFGEGFSPLLPVQTIKEEEIQPGEEMPHLARPIKVESPPLEEWPSPAPSFKEESSHSWEDSSQSPTPRPKKSYSGLRSPTRCVSEMLVIQHRERRERSRSRRKQHLLPPCVDEPELLFSEGPSTSRWAAELPFPADSSDPASQLSYSQEVGGPFKTPIKETLPISSTPSKSVLPRTPESWRLTPPAKVGGLDFSPVQTSQGASDPLPDPLGLMDLSTTPLQSAPPLESPQRLLSSEPLDLISVPFGNSSPSDIDVPKPGSPEPQVSGLAANRSLTEGLVLDTMNDSLSKILLDISFPGLDEDPLGPDNINWSQFIPELQ
For the molecule B1, the binding entry is reported as “binds”.
